One substance from US6495663B1 (The Board of Trustees of the Leland Stanford Junior …, priority 1997, dated 2002) can be followed below.

The data set can be described thus: general procedure: Fmoc solid-phase peptide synthesis; Wang resins. The note with it: conjugation step, overall.

Substance “N-acetyl-Cys(SH)-Ala-Ala-Ala-(Arg)7—CO2H” registered a conjugation yield of 50%.
